PubChem BioAssay AID504744, Drosophila RNAi Screening Center, 2011

Aim: 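Uncover factors, including feedback loops, that control dAkt activation in fly cells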 (primary screen)
Cells: Drosophila Kc167 cells
Knock-down reagent: long dsRNA against Drosophila genes, 250 ng dsRNA per well of a 384-well plate
Time to read-out: 3 days of knock-down, then overnight serum-free starvation before stimulation
Challenge: bovine insulin at 387 nM for 10 minutes after 12 h without serum
Detection: 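In-cell antibody fluorescence for phospho-dAkt in each well over DNA-dye signal, with log2 residuals expressed as z-scores adjusted for cell count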
Call rule: 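Under insulin, a gene counts as a hit if the average z-score of two replicates lies above 2.5 or below -2.5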
In all, the deposit lists about 23,000 reagents; this is a random part of those with a known target gene and a result. Of all reagents, 98 (0.43%) got an active call. 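Only hit calls are given; the phospho-dAkt signals, z-scores and hit direction were not deposited.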 Names joined by + are all predicted targets of the reagent.

gene	dsRNA	activity call
CG32277 (GeneID 38393)	DRSC08196	inactive
slpr (GeneID 44111)	DRSC18225	inactive
Usp20-33 (GeneID 36580)	DRSC07196	inactive
fh (GeneID 31845)	DRSC18430	inactive
CG1637 (GeneID 32019)	DRSC18865	inactive
CG1637 (GeneID 32019)	DRSC19748	inactive
CG1637 (GeneID 32019)	DRSC19749	inactive
CG5781 (GeneID 34678)	DRSC02893	inactive
Syx17 (GeneID 38541)	DRSC08591	inactive
Ugt303A1 (GeneID 53503)	DRSC15641	inactive
CG5506 (GeneID 39992)	DRSC10511	inactive
CG3649 (GeneID 37626)	DRSC04400	inactive
CG30095 (GeneID 246453)	DRSC07175	inactive
Pstk + Tim9b	DRSC19504	inactive
Pstk + Tim9b	DRSC20292	inactive
Aatf (GeneID 33943)	DRSC02131	inactive
upd1 (GeneID 32813)	DRSC20358	inactive
Jhedup (GeneID 36779)	DRSC07173	inactive
ZC3H3 (GeneID 38968)	DRSC10696	inactive
CG33090 (GeneID 34835)	DRSC01908	inactive
Gr36b (GeneID 117487)	DRSC21637	inactive
CG2076 (GeneID 32041)	DRSC19832	inactive
scra (GeneID 35696)	DRSC07679	inactive
CG4053 (GeneID 42070)	DRSC15538	inactive
CG17572 (GeneID 35182)	DRSC02629	inactive
CG30412 (GeneID 37691)	DRSC04564	inactive
cype (GeneID 46040)	DRSC02356	inactive
CG4020 (GeneID 31522)	DRSC18337	inactive
CG13955 (GeneID 35968)	DRSC06443	inactive
ATPsynG (GeneID 46069)	DRSC02928	inactive
Odc2 (GeneID 35767)	DRSC07483	inactive
CG5895 (GeneID 39752)	DRSC10554	inactive
Cpr100A (GeneID 43657)	DRSC14465	inactive
CG14180 (retired record) (GeneID 39101)	DRSC10179	inactive
CG6766 (GeneID 34619)	DRSC02991	inactive
Snx17 (GeneID 34354)	DRSC02884	inactive
CG14969 (GeneID 38415)	DRSC08428	inactive
CG30429 (GeneID 246609)	DRSC04040	inactive
CASK (GeneID 42567)	DRSC14588	inactive
CASK (GeneID 42567)	DRSC16597	inactive
CASK (GeneID 42567)	DRSC16598	inactive
CASK (GeneID 42567)	DRSC21917	inactive
CG43861 + CG12508 (retired record)	DRSC02170	inactive
CG17650 (GeneID 33358)	DRSC00510	inactive
CG6933 (GeneID 40214)	DRSC10751	inactive

A run of entries taken from the entries so far, as a working copy:
gene	dsRNA	activity call
CG33090 (GeneID 34835)	DRSC01908	inactive
Gr36b (GeneID 117487)	DRSC21637	inactive
CG2076 (GeneID 32041)	DRSC19832	inactive
scra (GeneID 35696)	DRSC07679	inactive
CG4053 (GeneID 42070)	DRSC15538	inactive
CG17572 (GeneID 35182)	DRSC02629	inactive
CG30412 (GeneID 37691)	DRSC04564	inactive
cype (GeneID 46040)	DRSC02356	inactive
CG4020 (GeneID 31522)	DRSC18337	inactive
CG13955 (GeneID 35968)	DRSC06443	inactive
ATPsynG (GeneID 46069)	DRSC02928	inactive
Odc2 (GeneID 35767)	DRSC07483	inactive
CG5895 (GeneID 39752)	DRSC10554	inactive
Cpr100A (GeneID 43657)	DRSC14465	inactive
CG14180 (retired record) (GeneID 39101)	DRSC10179	inactive

The results go on.
gene	dsRNA	activity call
GstE14 (GeneID 36467)	DRSC06881	inactive
DMAP1 (GeneID 37339)	DRSC06044	inactive
geminin (GeneID 35563)	DRSC04984	inactive
CG7166 (GeneID 40401)	DRSC11809	inactive
Lcp65Aa (GeneID 38709)	DRSC11209	inactive
yellow-g2 (GeneID 38295)	DRSC08338	inactive
CG5961 (GeneID 41541)	DRSC15927	inactive
scyl (GeneID 39270)	DRSC11392	inactive
CG15545 (GeneID 43658)	DRSC15083	inactive
Ino80 (GeneID 42314)	DRSC14760	inactive
Ino80 (GeneID 42314)	DRSC15333	inactive
Ino80 (GeneID 42314)	DRSC15501	inactive
lncRNA:CR32385 (GeneID 3772463)	DRSC22966	inactive
CG44014 (GeneID 41893)	DRSC14995	inactive
mRpS18B (GeneID 35299)	DRSC02107	inactive
kmg (GeneID 34706)	DRSC02829	inactive
tapas (GeneID 37304)	DRSC05950	inactive
CG8925 (GeneID 41963)	DRSC16455	inactive
CG8925 (GeneID 41963)	DRSC16456	inactive
CG8925 (GeneID 41963)	DRSC16457	inactive
CG9512 (GeneID 32419)	DRSC20189	inactive
CG13220 (GeneID 36200)	DRSC06342	inactive
CG13577 (GeneID 37885)	DRSC04213	inactive
CG9114 (GeneID 32460)	DRSC20155	inactive
Ravus (GeneID 41626)	DRSC15126	inactive
SmE (GeneID 34080)	DRSC02680	inactive
trpl (GeneID 36003)	DRSC06728	inactive
trpl (GeneID 36003)	DRSC06729	inactive
CG16953 (GeneID 42437)	DRSC15167	inactive
CG15646 (GeneID 32501)	DRSC19682	inactive
CG17475 (GeneID 42069)	DRSC15238	inactive
Elba3 (GeneID 33670)	DRSC00469	inactive
CG7130 (GeneID 40450)	DRSC11797	inactive
nenya (GeneID 318572)	DRSC13838	inactive
CG12814 (GeneID 41246)	DRSC14552	inactive
CG12814 (GeneID 41246)	DRSC14553	inactive
CG12003 (GeneID 38183)	DRSC08214	inactive
CG13722 (GeneID 38555)	DRSC08331	inactive
CG13722 (GeneID 38555)	DRSC21616	inactive
CG42714 (GeneID 10178862)	DRSC08798	inactive
SCOT (GeneID 38261)	DRSC08186	inactive
CG42747 (GeneID 38732)	DRSC10209	inactive
CG42747 (GeneID 38732)	DRSC10210	inactive
CG33093 (GeneID 42654)	DRSC15775	inactive
Acbp1 (GeneID 34111)	DRSC03093	inactive
CDK2AP1 (GeneID 32050)	DRSC19800	inactive
CG14395 (GeneID 41560)	DRSC14852	inactive
Mcad (GeneID 38864)	DRSC09871	inactive
MFS10 (GeneID 32263)	DRSC19888	inactive
CG13064 (GeneID 2768963)	DRSC09947	inactive
CG15814 (GeneID 32765)	DRSC19730	inactive
tHMG1 (GeneID 42650)	DRSC16181	inactive
CG13607 (GeneID 42859)	DRSC14610	inactive
CG14357 (GeneID 41716)	DRSC14820	inactive
can (GeneID 45432)	DRSC10664	inactive
Scgbeta (GeneID 41525)	DRSC15854	inactive
CG12541 (GeneID 31650)	DRSC17483	inactive
CG12541 (GeneID 31650)	DRSC17839	inactive
fig (GeneID 43511)	DRSC16270	inactive
CG32188 (GeneID 317901)	DRSC09510	inactive
ens (GeneID 38491)	DRSC08454	inactive
Camta (GeneID 35974)	DRSC06440	inactive
Camta (GeneID 35974)	DRSC06441	inactive
Camta (GeneID 35974)	DRSC07272	inactive
